The source of these data is patent US20250283871A1, “COMPOSITIONS AND METHODS FOR MODULATING THE INTERACTION BETWEEN SS18-SSX FUSION ONCOPROTEIN AND NUCLEOSOMES” (Dana-Farber Cancer Institute, Inc., priority 2020, published 2025).

The chains are these.
B1: RCL1 (protein, UniProt Q9Y2P8 1-373, looked up)
RNA 3'-terminal phosphate …: MATQAHSLSYAGCNFLRQRLVLSTLSGRPVKIRKIRARDDNPGLRDFEASFIRLLDKITNGSRIEINQTGTTLYYQPGLLYGGSVEHDCSVLRGIGYYLESLLCLAPFMKHPLKIVLRGVTNDQVDPSVDVLKATALPLLKQFGIDGESFELKIVRRGMPPGGGGEVVFSCPVRKVLKPIQLTDPGKIKRIRGMAYSVRVSPQMANRIVDSARSILNKFIPDIYIYTDHMKGVNSGKSPGFGLSLVAETTSGTFLSAELASNPQGQGAAVLPEDLGRNCARLLLEEIYRGGCVDSTNQSLALLLMTLGQQDVSKVLLGPLSPYTIEFLRHLKSFFQIMFKIETKPCGEELKGGDKVLMTCVGIGFSNLSKTLK
B2: CENPB (protein, UniProt P07199 2-599, looked up)
Major centromere autoantigen B: GPKRRQLTFREKSRIIQEVEENPDLRKGEIARRFNIPPSTLSTILKNKRAILASERKYGVASTCRKTNKLSPYDKLEGLLIAWFQQIRAAGLPVKGIILKEKALRIAEELGMDDFTASNGWLDRFRRRHGVVSCSGVARARARNAAPRTPAAPASPAAVPSEGSGGSTTGWRAREEQPPSVAEGYASQDVFSATETSLWYDFLPDQAAGLCGGDGRPRQATQRLSVLLCANADGSEKLPPLVAGKSAKPRAGQAGLPCDYTANSKGGVTTQALAKYLKALDTRMAAESRRVLLLAGRLAAQSLDTSGLRHVQLAFFPPGTVHPLERGVVQQVKGHYRQAMLLKAMAALEGQDPSGLQLGLTEALHFVAAAWQAVEPSDIAACFREAGFGGGPNATITTSLKSEGEEEEEEEEEEEEEEGEGEEEEEEGEEEEEEGGEGEELGEEEEVEEEGDVDSDEEEEEDEESSSEGLEAEDWAQGVVEAGGSFGAYGAQEEAQCPTLHFLEGGEDSDSDSEEEDDEEEDDEDEDDDDDEEDGDEVPVPSFGEAMAYFAMVKRYLTSFPIDDRVQSHILHLEHDLVHVTRKNHARQAGVRGLGHQS
B3: HNRNPCL2 (protein, UniProt B2RXH8 1-293, looked up)
Heterogeneous nuclear …: MASNVTNKMDPHSVNSRVFIGNLNTLVVKKSDVEAIFSKYGKIAGCSVHKGFAFVQYDKEKNARAAVAGEDGRMIASQVAVINLAAEPKVNRGNAGVKRSAAEMYGSSFDLDYGFQRDYYDGMYSFPARVPPPPPIALAVVPSKRQRISGNTSRRGKSGFNSKSGKRGSSKSGKLKGDDLQAIKQELTQIKQKVDSLLENLEKIEKEQSKQEVEVKNAKSEEEQSSSSMKKDETHVKMESEGGAEDSAEEGDPLDDDDNEDQGDNQLHLIKNNEKDAEEGEDNRDSTNGQDDS
B4: TUBA1C (protein, UniProt Q9BQE3 1-449, looked up)
Tubulin alpha-1C chain: MRECISIHVGQAGVQIGNACWELYCLEHGIQPDGQMPSDKTIGGGDDSFNTFFSETGAGKHVPRAVFVDLEPTVIDEVRTGTYRQLFHPEQLITGKEDAANNYARGHYTIGKEIIDLVLDRIRKLADQCTGLQGFLVFHSFGGGTGSGFTSLLMERLSVDYGKKSKLEFSIYPAPQVSTAVVEPYNSILTTHTTLEHSDCAFMVDNEAIYDICRRNLDIERPTYTNLNRLISQIVSSITASLRFDGALNVDLTEFQTNLVPYPRIHFPLATYAPVISAEKAYHEQLTVAEITNACFEPANQMVKCDPRHGKYMACCLLYRGDVVPKDVNAAIATIKTKRTIQFVDWCPTGFKVGINYQPPTVVPGGDLAKVQRAVCMLSNTTAVAEAWARLDHKFDLMYAKRAFVHWYVGEGMEEGEFSEAREDMAALEKDYEEVGADSADGEDEGEEY
B5: CBX8 (protein, UniProt Q9HC52 1-389, looked up)
Chromobox protein homolog 8: MELSAVGERVFAAEALLKRRIRKGRMEYLVKWKGWSQKYSTWEPEENILDARLLAAFEEREREMELYGPKKRGPKPKTFLLKAQAKAKAKTYEFRSDSARGIRIPYPGRSPQDLASTSRAREGLRNMGLSPPASSTSTSSTCRAEAPRDRDRDRDRDRERDRERERERERERERERERERGTSRVDDKPSSPGDSSKKRGPKPRKELPDPSQRPLGEPSAGLGEYLKGRKLDDTPSGAGKFPAGHSVIQLARRQDSDLVQCGVTSPSSAEATGKLAVDTFPARVIKHRAAFLEAKGQGALDPNGTRVRHGSGPPSSGGGLYRDMGAQGGRPSLIARIPVARILGDPEEESWSPSLTNLEKVVVTDVTSNFLTVTIKESNTDQGFFKEKR
B6: NOC4L (protein, UniProt Q9BVI4 1-516, looked up)
Nucleolar complex protein 4 …: MEREPGAAGVRRALGRRLEAVLASRSEANAVFDILAVLQSEDQEEIQEAVRTCSRLFGALLERGELFVGQLPSEEMVMTGSQGATRKYKVWMRHRYHSCCNRLGELLGHPSFQVKELALSALLKFVQLEGAHPLEKSKWEGNYLFPRELFKLVVGGLLSPEEDQSLLLSQFREYLDYDDTRYHTMQAAVDAVARVTGQHPEVPPAFWNNAFTLLSAVSLPRREPTVSSFYVKRAELWDTWKVAHLKEHRRVFQAMWLSFLKHKLPLSLYKKVLLIVHDAILPQLAQPTLMIDFLTRACDLGGALSLLALNGLFILIHKHNLEYPDFYRKLYGLLDPSVFHVKYRARFFHLADLFLSSSHLPAYLVAAFAKRLARLALTAPPEALLMVLPFICNLLRRHPACRVLVHRPHGPELDADPYDPGEEDPAQSRALESSLWELQALQRHYHPEVSKAASVINQALSMPEVSIAPLLELTAYEIFERDLKKKGPEPVPLEFIPAQGLLGRPGELCAQHFTLS
B7: GATAD2B (protein, UniProt Q8WXI9 1-593, looked up)
Transcriptional repressor …: MDRMTEDALRLNLLKRSLDPADERDDVLAKRLKMEGHEAMERLKMLALLKRKDLANLEVPHELPTKQDGSGVKGYEEKLNGNLRPHGDNRTAGRPGKENINDEPVDMSARRSEPERGRLTPSPDIIVLSDNEASSPRSSSRMEERLKAANLEMFKGKGIEERQQLIKQLRDELRLEEARLVLLKKLRQSQLQKENVVQKTPVVQNAASIVQPSPAHVGQQGLSKLPSRPGAQGVEPQNLRTLQGHSVIRSATNTTLPHMLMSQRVIAPNPAQLQGQRGPPKPGLVRTTTPNMNPAINYQPQSSSSVPCQRTTSSAIYMNLASHIQPGTVNRVSSPLPSPSAMTDAANSQAAAKLALRKQLEKTLLEIPPPKPPAPLLHFLPSAANSEFIYMVGLEEVVQSVIDSQGKSCASLLRVEPFVCAQCRTDFTPHWKQEKNGKILCEQCMTSNQKKALKAEHTNRLKNAFVKALQQEQEIEQRLQQQAALSPTTAPAVSSVSKQETIMRHHTLRQAPQPQSSLQRGIPTSARSMLSNFAQAPQLSVPGGLLGMPGVNIAYLNTGIGGHKGPSLADRQREYLLDMIPPRSISQSISGQK
B8: LMNB2 (protein, UniProt Q03252 1-617, looked up)
Lamin-B2: MSPPSPGRRREQRRPRAAATMATPLPGRAGGPATPLSPTRLSRLQEKEELRELNDRLAHYIDRVRALELENDRLLLKISEKEEVTTREVSGIKALYESELADARRVLDETARERARLQIEIGKLRAELDEVNKSAKKREGELTVAQGRVKDLESLFHRSEVELAAALSDKRGLESDVAELRAQLAKAEDGHAVAKKQLEKETLMRVDLENRCQSLQEELDFRKSVFEEEVRETRRRHERRLVEVDSSRQQEYDFKMAQALEELRSQHDEQVRLYKLELEQTYQAKLDSAKLSSDQNDKAASAAREELKEARMRLESLSYQLSGLQKQASAAEDRIRELEEAMAGERDKFRKMLDAKEQEMTEMRDVMQQQLAEYQELLDVKLALDMEINAYRKLLEGEEERLKLSPSPSSRVTVSRATSSSSGSLSATGRLGRSKRKRLEVEEPLGSGPSVLGTGTGGSGGFHLAQQASASGSVSIEEIDLEGKFVQLKNNSDKDQSLGNWRIKRQVLEGEEIAYKFTPKYILRAGQMVTVWAAGAGVAHSPPSTLVWKGQSSWGTGESFRTVLVNADGEEVAMRTVKKSSVMRENENGEEEEEEAEFGEEDLFHQQGDPRTTSRGC
B9: SNW1 (protein, UniProt Q13573 2-536, looked up)
SNW domain-containing protein …: ALTSFLPAPTQLSQDQLEAEEKARSQRSRQTSLVSSRREPPPYGYRKGWIPRLLEDFGDGGAFPEIHVAQYPLDMGRKKKMSNALAIQVDSEGKIKYDAIARQGQSKDKVIYSKYTDLVPKEVMNADDPDLQRPDEEAIKEITEKTRVALEKSVSQKVAAAMPVRAADKLAPAQYIRYTPSQQGVAFNSGAKQRVIRMVEMQKDPMEPPRFKINKKIPRGPPSPPAPVMHSPSRKMTVKEQQEWKIPPCISNWKNAKGYTIPLDKRLAADGRGLQTVHINENFAKLAEALYIADRKAREAVEMRAQVERKMAQKEKEKHEEKLREMAQKARERRAGIKTHVEKEDGEARERDEIRHDRRKERQHDRNLSRAAPDKRSKLQRNENRDISEVIALGVPNPRTSNEVQYDQRLFNQSKGMDSGFAGGEDEIYNVYDQAWRGGKDMAQSIYRPSKNLDKDMYGDDLEARIKTNRFVPDKEFSGSDRRQRGREGPVQFEEDPFGLDKFLEEAKQHGGSKRPSDSSRPKEHEHEGKKRRKE

For one data set, the system named is BAF complex subunits and histone proteins. The experiment in a line: Mass spectrometry proteomics of purified HA-SS18 WT and HA-SS18-SSX1 complexes (Tables 5A-5E). The settings on record: HA-SS18SSX1_CHR_peptides: protein identified in the HA-SS18-SSX1 purification from solubilized chromatin (CHR), HEK-293T. The arrangement: species or system human.
As for B1, the “Total (total peptides)” value is on record as 6 and the “Unique (unique peptides)” value came out at 6.

For B2, the “Total (total peptides)” value was found to be 6 and the “Unique (unique peptides)” value came to 6.

For B3, the “Total (total peptides)” value came to 6 and the “Unique (unique peptides)” value came to 6.

Consider B4, for which the “Total (total peptides)” value is reported as 6 and the “Unique (unique peptides)” value stood at 6.

Consider B5, for which the “Total (total peptides)” value turned out to be 6 and the “Unique (unique peptides)” value worked out at 6.

Take B6: the “Total (total peptides)” value was 6 and the “Unique (unique peptides)” value amounted to 6.

Consider B7, for which the “Total (total peptides)” value was 6 and the “Unique (unique peptides)” value is reported as 6.

On to B8, for which the “Total (total peptides)” value was found to be 6 and the “Unique (unique peptides)” value is 6.

With B9, the “Total (total peptides)” value is 6 and the “Unique (unique peptides)” value came out at 6.

The data set is the same for the next values; noted with them: HA-SS18SSX1_NE_peptides: protein co-purified with HA-SS18-SSX1 BAF complexes from soluble nuclear extract (NE), HEK-293T cells.
Regarding B8, the “Total (peptides)” value is 2 and the “Unique (peptides)” value is given as 2.

Still in this data set, the particulars now being: HA-SS18SSX1 purification, NE (soluble nuclear extract) fraction, HEK-293T; peptides per identified protein.
With B4, the “Total (total peptides)” value turned out to be 11 and the “Unique (unique peptides)” value came out at 9.

The data set is the same for the next values; noted with them: HA-SS18WT_CHR_peptides: HA-SS18 WT purification from nuclease-treated solubilized chromatin (CHR), HEK-293T; label = protein identified.
Turning to B1, the “Total (peptides)” value was 4 and the “Unique (peptides)” value was 4.

In the case of B2, the “Total (peptides)” value was 5 and the “Unique (peptides)” value amounted to 5.

For the molecule B3, the “Total (peptides)” value stood at 8 and the “Unique (peptides)” value amounted to 6.

Take B4: the “Total (peptides)” value is given as 3 and the “Unique (peptides)” value was 3.

With B5, the “Total (peptides)” value is reported as 3 and the “Unique (peptides)” value was determined as 3.

Take B6: the “Total (peptides)” value was determined as 3 and the “Unique (peptides)” value is recorded as 3.

As for B7, the “Total (peptides)” value worked out at 4 and the “Unique (peptides)” value is given as 4.

Staying with this data set, now noted: HA-SS18WT_CHR_peptides: protein identified in HA-SS18 WT BAF complex purification from nuclease-treated solubilized chromatin (CHR), HEK-293T.
Regarding B8, the “Total (total peptides)” value is on record as 2 and the “Unique (unique peptides)” value is 2.

Still in this data set, the particulars now being: HA-SS18WT_NE_peptides: HA-SS18 WT complexes purified from nuclear extract (NE), HEK-293T; label = protein identified (Gene Symbol).
Consider B4, for which the “Total (peptides)” value stood at 14 and the “Unique (peptides)” value is 13.

Staying with this data set, now noted: HA-SS18WT_NE_peptides: proteins co-purified with HA-SS18 WT from nuclear extract (NE), HEK-293T.
Turning to B6, the “Total (peptides)” value came out at 1 and the “Unique (peptides)” value was 1.
